{
  "source": "paper PMC7066245",
  "about": "(Scientific Reports, 2020)",
  "key": {"[1]": {"system": "HL60 promyelocytic leukemia cells", "format": "cell-based, human"}, "[2]": {"system": "normal peripheral blood-derived mononuclear cells (PBMC)", "format": "cell-based"}, "[3]": {"system": "THP1 acute monocytic leukemia cells", "format": "cell-based, human"}, "[4]": {"system": "RPMI8226 myeloma cancer cells", "format": "cell-based, human"}},
  "data": [
    {"smiles": "CCOC(=O)C(N)Cc1ccc(N(CCCl)CCCl)cc1", "note": "(centres unmarked) [EE-MEL]", "values": [
      {"measurement": "fold lower IC50 than melphalan, HL60", "setting": "[1]", "result": "~5.5", "unit": "fold"},
      {"measurement": "fold higher IC50 in PBMC than in leukemia cells", "setting": "[2]", "result": "around 4.5 fold"},
      {"measurement": "fold higher IC50 in PBMC than in multiple myeloma (RPMI8226) cells", "setting": "[2]", "result": "~2", "unit": "fold"},
      {"measurement": "fold lower IC50 than melphalan, THP1", "setting": "[3]", "result": "~20", "unit": "fold"},
      {"measurement": "fold lower IC50 than melphalan, RPMI8226", "setting": "[4]", "result": "~8", "unit": "fold"}
    ]},
    {"smiles": "CCOC(=O)C(Cc1ccc(N(CCCl)CCCl)cc1)N=CN1CCOCC1", "note": "(centres unmarked) [EE-MOR-MEL]", "values": [
      {"measurement": "fold lower IC50 than melphalan, HL60", "setting": "[1]", "result": "around 12 fold"},
      {"measurement": "fold lower IC50 than melphalan, THP1", "setting": "[3]", "result": "~160", "unit": "fold"},
      {"measurement": "fold lower IC50 than melphalan, RPMI8226", "setting": "[4]", "result": "more than 2.8 fold"}
    ]},
    {"smiles": "COC(=O)C(Cc1ccc(N(CCCl)CCCl)cc1)N=CN1CCOCC1", "note": "(centres unmarked) [EM-MOR-MEL]", "values": [
      {"measurement": "fold higher IC50 in PBMC than in HL60", "setting": "[2]", "result": "~15", "unit": "fold"},
      {"measurement": "fold higher IC50 in PBMC than in THP1", "setting": "[2]", "result": "around 90 fold"},
      {"measurement": "fold higher IC50 in PBMC than in multiple myeloma (RPMI8226) cells", "setting": "[2]", "result": "~2", "unit": "fold"}
    ]}
  ]
}
